Measured values reported in the supplement of paper PMC10849652.
This is one part of the list.

The chains behind the UniProt entries cited, without tags or fusion partners. Where a name states a change or a piece, a line headed by the entry shows the natural chain unless it says otherwise.
UniProt Q9H5K3: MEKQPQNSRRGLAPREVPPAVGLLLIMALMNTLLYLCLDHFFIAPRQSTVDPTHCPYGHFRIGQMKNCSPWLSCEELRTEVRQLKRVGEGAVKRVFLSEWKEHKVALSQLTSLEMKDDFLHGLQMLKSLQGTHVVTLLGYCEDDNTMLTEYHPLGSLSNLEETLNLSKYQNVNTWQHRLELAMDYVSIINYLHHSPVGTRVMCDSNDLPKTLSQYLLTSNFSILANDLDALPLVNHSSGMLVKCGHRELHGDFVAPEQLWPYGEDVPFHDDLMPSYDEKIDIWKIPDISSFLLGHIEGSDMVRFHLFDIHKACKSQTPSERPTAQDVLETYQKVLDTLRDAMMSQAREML
UniProt P54278: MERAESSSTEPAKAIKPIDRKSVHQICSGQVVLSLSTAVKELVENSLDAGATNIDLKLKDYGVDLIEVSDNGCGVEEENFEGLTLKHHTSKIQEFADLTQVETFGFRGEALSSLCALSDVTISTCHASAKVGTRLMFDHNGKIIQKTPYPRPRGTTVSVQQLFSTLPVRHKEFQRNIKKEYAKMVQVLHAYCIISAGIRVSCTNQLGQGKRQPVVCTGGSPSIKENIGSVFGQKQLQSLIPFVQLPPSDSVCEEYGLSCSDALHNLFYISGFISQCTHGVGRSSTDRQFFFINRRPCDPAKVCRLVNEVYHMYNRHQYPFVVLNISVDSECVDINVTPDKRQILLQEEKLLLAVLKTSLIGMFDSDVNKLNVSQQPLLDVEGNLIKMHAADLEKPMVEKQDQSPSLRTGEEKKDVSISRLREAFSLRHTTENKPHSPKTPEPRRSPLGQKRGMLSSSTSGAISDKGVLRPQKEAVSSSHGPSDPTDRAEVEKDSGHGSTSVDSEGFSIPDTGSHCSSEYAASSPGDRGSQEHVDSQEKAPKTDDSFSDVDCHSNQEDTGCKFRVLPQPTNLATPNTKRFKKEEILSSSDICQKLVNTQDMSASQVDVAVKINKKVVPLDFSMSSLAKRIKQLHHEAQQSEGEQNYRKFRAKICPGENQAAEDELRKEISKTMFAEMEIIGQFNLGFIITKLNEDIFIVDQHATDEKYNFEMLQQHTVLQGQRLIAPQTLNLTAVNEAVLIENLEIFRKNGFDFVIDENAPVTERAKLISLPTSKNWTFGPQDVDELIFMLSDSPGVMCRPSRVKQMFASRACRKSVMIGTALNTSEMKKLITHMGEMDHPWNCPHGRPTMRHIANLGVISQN
UniProt Q9Y2S7: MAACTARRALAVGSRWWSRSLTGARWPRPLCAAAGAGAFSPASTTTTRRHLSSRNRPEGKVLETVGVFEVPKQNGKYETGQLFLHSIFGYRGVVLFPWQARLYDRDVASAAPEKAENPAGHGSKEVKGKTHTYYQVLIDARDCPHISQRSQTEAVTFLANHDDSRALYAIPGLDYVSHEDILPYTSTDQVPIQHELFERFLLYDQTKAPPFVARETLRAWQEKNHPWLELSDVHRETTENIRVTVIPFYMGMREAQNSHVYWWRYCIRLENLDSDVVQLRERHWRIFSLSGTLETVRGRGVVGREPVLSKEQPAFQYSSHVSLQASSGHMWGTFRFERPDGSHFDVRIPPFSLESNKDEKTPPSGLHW
UniProt Q9H2H8: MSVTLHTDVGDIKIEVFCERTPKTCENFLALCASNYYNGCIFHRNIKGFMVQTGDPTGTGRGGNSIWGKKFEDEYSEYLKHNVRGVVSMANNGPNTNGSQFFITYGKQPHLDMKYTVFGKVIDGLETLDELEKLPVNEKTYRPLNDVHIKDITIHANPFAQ
UniProt Q13794: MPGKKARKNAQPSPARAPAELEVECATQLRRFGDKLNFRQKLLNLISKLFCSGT
UniProt Q9NVU0: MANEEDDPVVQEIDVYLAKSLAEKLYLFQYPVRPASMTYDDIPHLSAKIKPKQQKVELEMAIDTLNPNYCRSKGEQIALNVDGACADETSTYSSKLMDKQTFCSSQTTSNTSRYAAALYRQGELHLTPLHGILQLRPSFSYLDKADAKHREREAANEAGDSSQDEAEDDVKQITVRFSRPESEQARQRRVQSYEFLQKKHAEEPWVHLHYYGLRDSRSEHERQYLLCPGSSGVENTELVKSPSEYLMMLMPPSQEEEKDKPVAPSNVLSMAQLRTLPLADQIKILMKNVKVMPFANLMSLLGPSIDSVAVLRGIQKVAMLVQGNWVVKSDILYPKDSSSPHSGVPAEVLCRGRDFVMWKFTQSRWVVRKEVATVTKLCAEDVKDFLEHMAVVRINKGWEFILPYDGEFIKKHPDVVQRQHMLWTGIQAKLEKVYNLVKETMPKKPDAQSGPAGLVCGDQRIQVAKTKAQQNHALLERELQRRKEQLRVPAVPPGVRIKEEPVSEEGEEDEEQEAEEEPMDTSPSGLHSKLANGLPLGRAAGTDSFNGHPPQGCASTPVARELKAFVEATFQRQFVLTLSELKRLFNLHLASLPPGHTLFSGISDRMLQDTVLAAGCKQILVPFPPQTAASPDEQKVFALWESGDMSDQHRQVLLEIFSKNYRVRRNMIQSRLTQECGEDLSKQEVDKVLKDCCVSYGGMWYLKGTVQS
UniProt Q8TD55: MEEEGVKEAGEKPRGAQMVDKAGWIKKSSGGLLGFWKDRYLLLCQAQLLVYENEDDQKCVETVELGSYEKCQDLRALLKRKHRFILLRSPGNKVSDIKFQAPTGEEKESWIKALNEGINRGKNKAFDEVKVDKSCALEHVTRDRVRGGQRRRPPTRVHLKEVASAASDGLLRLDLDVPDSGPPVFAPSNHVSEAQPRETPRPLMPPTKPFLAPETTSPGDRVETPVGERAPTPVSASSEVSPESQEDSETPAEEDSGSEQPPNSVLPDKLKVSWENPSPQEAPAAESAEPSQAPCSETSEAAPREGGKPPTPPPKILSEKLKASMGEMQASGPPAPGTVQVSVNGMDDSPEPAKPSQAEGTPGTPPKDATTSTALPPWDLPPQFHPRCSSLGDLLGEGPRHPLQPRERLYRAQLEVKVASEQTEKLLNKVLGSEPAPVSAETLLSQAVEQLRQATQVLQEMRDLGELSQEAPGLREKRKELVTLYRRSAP
UniProt O60664: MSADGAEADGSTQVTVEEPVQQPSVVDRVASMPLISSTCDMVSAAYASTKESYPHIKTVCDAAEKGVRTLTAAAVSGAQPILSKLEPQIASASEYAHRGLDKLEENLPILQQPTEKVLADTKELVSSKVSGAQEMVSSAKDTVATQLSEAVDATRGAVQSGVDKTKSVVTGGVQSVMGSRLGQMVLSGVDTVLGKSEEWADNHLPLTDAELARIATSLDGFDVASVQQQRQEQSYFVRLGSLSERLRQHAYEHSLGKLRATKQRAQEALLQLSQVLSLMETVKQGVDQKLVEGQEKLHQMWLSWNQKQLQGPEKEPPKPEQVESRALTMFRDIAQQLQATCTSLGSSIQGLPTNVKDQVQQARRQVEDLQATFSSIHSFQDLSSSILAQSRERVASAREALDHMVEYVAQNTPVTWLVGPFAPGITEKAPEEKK
UniProt P0DPB6, whole entry, looked up: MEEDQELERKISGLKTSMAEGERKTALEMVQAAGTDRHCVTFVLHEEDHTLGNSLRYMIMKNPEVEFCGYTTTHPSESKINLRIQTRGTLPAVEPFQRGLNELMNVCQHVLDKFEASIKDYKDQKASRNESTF
UniProt Q9H2U2: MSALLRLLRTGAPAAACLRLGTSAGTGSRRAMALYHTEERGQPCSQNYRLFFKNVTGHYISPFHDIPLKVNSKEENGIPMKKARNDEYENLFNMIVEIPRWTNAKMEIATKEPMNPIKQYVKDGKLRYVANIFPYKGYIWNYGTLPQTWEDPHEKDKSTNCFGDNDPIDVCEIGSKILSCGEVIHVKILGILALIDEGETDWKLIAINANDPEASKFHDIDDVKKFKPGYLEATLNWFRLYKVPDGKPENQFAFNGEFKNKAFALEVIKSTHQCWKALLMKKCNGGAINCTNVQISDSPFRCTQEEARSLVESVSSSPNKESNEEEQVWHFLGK
UniProt P14859: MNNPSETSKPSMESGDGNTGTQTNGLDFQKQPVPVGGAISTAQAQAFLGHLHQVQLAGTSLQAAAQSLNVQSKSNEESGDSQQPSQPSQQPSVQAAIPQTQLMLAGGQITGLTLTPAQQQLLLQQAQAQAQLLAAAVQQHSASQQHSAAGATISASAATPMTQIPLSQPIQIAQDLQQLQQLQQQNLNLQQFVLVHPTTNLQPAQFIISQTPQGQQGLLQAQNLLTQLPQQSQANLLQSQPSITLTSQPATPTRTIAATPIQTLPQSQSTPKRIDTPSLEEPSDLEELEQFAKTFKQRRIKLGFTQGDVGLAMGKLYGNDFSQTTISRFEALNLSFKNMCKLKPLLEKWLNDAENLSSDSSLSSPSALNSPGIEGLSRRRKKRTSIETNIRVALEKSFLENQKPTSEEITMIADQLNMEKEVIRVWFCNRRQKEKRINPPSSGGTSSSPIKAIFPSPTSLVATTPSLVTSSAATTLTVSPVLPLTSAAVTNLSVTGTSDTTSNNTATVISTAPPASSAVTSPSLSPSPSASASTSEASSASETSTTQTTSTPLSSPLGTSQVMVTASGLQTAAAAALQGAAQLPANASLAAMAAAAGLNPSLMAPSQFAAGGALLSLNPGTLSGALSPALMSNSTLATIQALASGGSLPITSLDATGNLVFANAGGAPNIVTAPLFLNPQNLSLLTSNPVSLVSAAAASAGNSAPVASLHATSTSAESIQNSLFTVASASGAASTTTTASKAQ
UniProt Q8WVV4: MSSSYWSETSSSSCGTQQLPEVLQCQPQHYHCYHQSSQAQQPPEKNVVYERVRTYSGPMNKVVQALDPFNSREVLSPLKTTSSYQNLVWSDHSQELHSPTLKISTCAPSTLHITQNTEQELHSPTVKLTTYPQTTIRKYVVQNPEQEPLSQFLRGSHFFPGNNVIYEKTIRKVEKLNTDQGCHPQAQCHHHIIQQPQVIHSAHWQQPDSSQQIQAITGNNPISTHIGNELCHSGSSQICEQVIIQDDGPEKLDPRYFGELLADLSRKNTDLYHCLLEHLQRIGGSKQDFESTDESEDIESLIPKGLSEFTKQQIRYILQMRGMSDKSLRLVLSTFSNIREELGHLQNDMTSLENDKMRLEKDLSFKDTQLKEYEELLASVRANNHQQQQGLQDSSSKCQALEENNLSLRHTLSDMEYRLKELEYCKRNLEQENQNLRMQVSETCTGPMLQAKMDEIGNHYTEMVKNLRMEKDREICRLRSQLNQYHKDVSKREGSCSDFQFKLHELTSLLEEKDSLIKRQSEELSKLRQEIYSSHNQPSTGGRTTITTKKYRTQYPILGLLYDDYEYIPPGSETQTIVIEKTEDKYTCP
UniProt Q15063: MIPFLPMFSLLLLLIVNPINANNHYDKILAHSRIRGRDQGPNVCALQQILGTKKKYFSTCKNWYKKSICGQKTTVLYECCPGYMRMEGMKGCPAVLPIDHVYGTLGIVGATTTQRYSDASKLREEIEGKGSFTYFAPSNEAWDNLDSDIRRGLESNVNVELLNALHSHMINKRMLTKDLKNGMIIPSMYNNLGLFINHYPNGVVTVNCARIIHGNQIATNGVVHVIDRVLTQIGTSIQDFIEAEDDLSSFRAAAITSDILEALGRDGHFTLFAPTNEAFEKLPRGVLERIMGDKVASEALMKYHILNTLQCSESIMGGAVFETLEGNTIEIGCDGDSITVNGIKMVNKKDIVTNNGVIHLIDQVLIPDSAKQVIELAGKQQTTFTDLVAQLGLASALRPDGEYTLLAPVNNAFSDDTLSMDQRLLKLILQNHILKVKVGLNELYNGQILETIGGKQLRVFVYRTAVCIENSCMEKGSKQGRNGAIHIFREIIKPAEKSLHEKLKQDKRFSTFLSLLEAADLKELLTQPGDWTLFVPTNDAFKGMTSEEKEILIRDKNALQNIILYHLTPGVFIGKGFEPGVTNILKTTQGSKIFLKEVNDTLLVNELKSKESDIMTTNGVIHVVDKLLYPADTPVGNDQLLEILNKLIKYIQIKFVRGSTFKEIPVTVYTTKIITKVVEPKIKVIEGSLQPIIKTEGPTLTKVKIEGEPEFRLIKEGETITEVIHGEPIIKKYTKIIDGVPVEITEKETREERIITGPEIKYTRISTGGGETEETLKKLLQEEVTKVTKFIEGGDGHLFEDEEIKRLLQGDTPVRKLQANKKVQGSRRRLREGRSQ
UniProt O43660: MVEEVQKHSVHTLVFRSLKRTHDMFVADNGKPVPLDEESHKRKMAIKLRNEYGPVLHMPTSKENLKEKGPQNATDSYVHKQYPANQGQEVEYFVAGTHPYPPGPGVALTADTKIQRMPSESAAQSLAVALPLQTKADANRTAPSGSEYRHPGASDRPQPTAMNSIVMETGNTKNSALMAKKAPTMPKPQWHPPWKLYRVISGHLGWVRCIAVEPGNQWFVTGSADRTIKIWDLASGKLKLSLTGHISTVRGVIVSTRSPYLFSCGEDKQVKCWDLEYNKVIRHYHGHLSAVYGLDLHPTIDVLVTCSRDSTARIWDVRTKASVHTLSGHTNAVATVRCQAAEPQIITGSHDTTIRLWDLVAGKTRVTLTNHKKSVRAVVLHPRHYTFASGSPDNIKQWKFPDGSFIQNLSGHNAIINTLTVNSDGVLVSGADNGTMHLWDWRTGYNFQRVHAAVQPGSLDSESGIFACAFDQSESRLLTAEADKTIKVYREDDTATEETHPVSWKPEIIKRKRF

compound: c1cn2cc(-c3ccc4cn[nH]c4c3)nc(Nc3ccc(N4CCOCC4)cc3)c2n1 [entospletinib]; assay: log2 fold change, soluble protein after heating vs DMSO (PISA); higher = thermal stabilisation; K562 cells, 10 uM, 30 min; active = over 0.2 and 3.5 SD of the protein, either way, in both replicates (recomputed)
How it was run: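 K562 cells at 2×10^6 cells/mL were treated for 30 min with 10 μM compound, and aliquots were heated for 3 min over 48°C-58°C before pooling. Extraction used PBS with 0.5% NP-40 at 4°C, and soluble protein was the supernatant after 21,000xg for 90 min, measured by TMTpro 16plex LC-MS/MS with channel sums equalised. Thermal stability values, relative to control samples and from duplicates, are log2 fold changes.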

log2 fold change, active:
POMK (UniProt Q9H5K3) -0.293
PMM1 (UniProt Q92871) -0.415

log2 fold change, inactive:
PLP2 (UniProt Q04941) 0.082
PLS1 (UniProt Q14651) 0.07
PMS2 (UniProt P54278) -0.137
POLDIP2 (UniProt Q9Y2S7) -0.011
PPIL3 isoform 2 (UniProt Q9H2H8) 0.098
PLXNA1 (UniProt Q9UIW2) -0.004
PMAIP1 (UniProt Q13794) -0.24
POLR3E (UniProt Q9NVU0) 0.107
PNPLA6 (UniProt Q8IY17) 0.072
POLR1D (UniProt P0DPB5) 0.032
PLEKHO2 (UniProt Q8TD55) -0.015
PLXND1 (UniProt Q9Y4D7) -0.089
PPA1 (UniProt Q15181) 0.055
PPIC (UniProt P45877) -0.037
PLPBP (UniProt O94903) 0.143
PLIN3 isoform 2 (UniProt O60664) 0.256
PPIF (UniProt P30405) 0.035
POLR1D (UniProt P0DPB6) -0.016
PPIA isoform 2 (UniProt P62937) -0.266
PPA2 (UniProt Q9H2U2) 0.033
POU2F1 isoform 6 (UniProt P14859) 0.002
POC1A (UniProt Q8NBT0) 0.031
PLTP (UniProt P55058) 0.017
PPIH (UniProt O43447) 0.022
POF1B isoform 1 (UniProt Q8WVV4) -0.335
PNKP (UniProt Q96T60) -0.131
POSTN (UniProt Q15063) 0.105
PLRG1 (UniProt O43660) 0.037

Two entries drawn at random from those above, as already listed:
log2 fold change, inactive:
PPIF (UniProt P30405) 0.035
PNPLA6 (UniProt Q8IY17) 0.072
